Source: the supplement of paper PMC8728848
The other results are listed elsewhere or left out.

Tests used:
Experiment in all cases: glycan array binding signal (z-score within array); higher = stronger binding
Details in all cases: glycan notation: IUPAC condensed, linker removed
[1] = molecular target: Glc(b1-6)Glc
Method in brief: (§1)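 The Consortium for Functional Glycomics database supplied 3228 glycan arrays, of which those lacking an available protein sequence were dropped. The binding signal, a within-array Z-score, was averaged across arrays of the same protein sequence and across linkers. Negative scores can be read as non-binding.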

[2] = molecular target: GlcA(b1-3)Gal
Method in brief: as §1

[3] = molecular target: GlcA(b1-3)GlcNAc
Method in brief: as §1

[4] = molecular target: GlcA(b1-6)Gal
Method in brief: as §1

[5] = molecular target: GlcA3S(b1-3)Gal(b1-4)GlcNAc(b1-2)Man
Method in brief: as §1

[6] = molecular target: GlcA3S(b1-3)Gal(b1-4)GlcNAc(b1-3)Gal(b1-4)Glc
Method in brief: as §1

[7] = molecular target: GlcNAc(a1-3)Gal(b1-4)GlcNAc
Method in brief: as §1

[8] = molecular target: GlcNAc(a1-4)Gal(b1-3)GlcNAc
Method in brief: as §1

[9] = molecular target: GlcNAc(a1-4)Gal(b1-4)GalNAc
Method in brief: as §1

[10] = molecular target: GlcNAc(a1-4)Gal(b1-4)GlcNAc
Method in brief: as §1

[11] = molecular target: GlcNAc(a1-4)Gal(b1-4)GlcNAc(b1-3)Gal(b1-4)Glc
Method in brief: as §1

[12] = molecular target: GlcNAc(a1-4)Gal(b1-4)GlcNAc(b1-3)Gal(b1-4)GlcNAc
Method in brief: as §1

[13] = molecular target: GlcNAc(a1-4)Gal(b1-4)GlcNAc(b1-3)Gal(b1-4)GlcNAc(b1-3)Gal(b1-4)GlcNAc
Method in brief: as §1

[14] = molecular target: GlcNAc(a1-4)Gal(b1-4)GlcNAc(b1-3)Gal(b1-4)[Fuc(a1-3)]GlcNAc(b1-3)Gal(b1-4)[Fuc(a1-3)]GlcNAc
Method in brief: as §1

[15] = molecular target: GlcNAc(a1-6)Gal(b1-4)GlcNAc
Method in brief: as §1

[16] = molecular target: GlcNAc(b1-2)Gal(b1-3)GalNAc
Method in brief: as §1

[17] = molecular target: GlcNAc(b1-2)Man(a1-3)[GlcNAc(b1-2)Man(a1-6)]Man(b1-4)GlcNAc(b1-4)GlcNAc
Method in brief: as §1

[18] = molecular target: GlcNAc(b1-2)Man(a1-3)[GlcNAc(b1-2)Man(a1-6)]Man(b1-4)GlcNAc(b1-4)[Fuc(a1-6)]GlcNAc
Method in brief: as §1

[19] = molecular target: GlcNAc(b1-2)Man(a1-3)[GlcNAc(b1-4)][GlcNAc(b1-2)Man(a1-6)]Man(b1-4)GlcNAc(b1-4)GlcNAc
Method in brief: as §1

[20] = molecular target: GlcNAc(b1-2)Man(a1-3)[GlcNAc(b1-4)][GlcNAc(b1-2)Man(a1-6)]Man(b1-4)GlcNAc(b1-4)[Fuc(a1-6)]GlcNAc
Method in brief: as §1

[21] = molecular target: GlcNAc(b1-2)[GlcNAc(b1-4)]Man(a1-3)[GlcNAc(b1-2)Man(a1-6)]Man(b1-4)GlcNAc(b1-4)GlcNAc
Method in brief: as §1

[22] = molecular target: GlcNAc(b1-2)[GlcNAc(b1-4)]Man(a1-3)[GlcNAc(b1-4)][GlcNAc(b1-2)Man(a1-6)]Man(b1-4)GlcNAc(b1-4)GlcNAc
Method in brief: as §1

[23] = molecular target: GlcNAc(b1-2)[GlcNAc(b1-4)]Man(a1-3)[GlcNAc(b1-4)][GlcNAc(b1-2)[GlcNAc(b1-6)]Man(a1-6)]Man(b1-4)GlcNAc(b1-4)GlcNAc
Method in brief: as §1

[24] = molecular target: GlcNAc(b1-2)[GlcNAc(b1-4)]Man(a1-3)[GlcNAc(b1-4)][GlcNAc(b1-2)[GlcNAc(b1-6)]Man(a1-6)]Man(b1-4)GlcNAc(b1-4)[Fuc(a1-6)]GlcNAc
Method in brief: as §1

[25] = molecular target: GlcNAc(b1-2)[GlcNAc(b1-6)]Man(a1-6)[GlcNAc(b1-2)Man(a1-3)]Man(b1-4)GlcNAc(b1-4)GlcNAc
Method in brief: as §1

[26] = molecular target: GlcNAc(b1-2)[GlcNAc(b1-6)]Man(a1-6)[GlcNAc(b1-2)Man(a1-3)]Man(b1-4)GlcNAc(b1-4)[Fuc(a1-6)]GlcNAc
Method in brief: as §1

[27] = molecular target: GlcNAc(b1-2)[GlcNAc(b1-6)]Man(a1-6)[GlcNAc(b1-4)][GlcNAc(b1-2)Man(a1-3)]Man(b1-4)GlcNAc(b1-4)GlcNAc
Method in brief: as §1

[28] = molecular target: GlcNAc(b1-3)Fuc
Method in brief: as §1

[29] = molecular target: GlcNAc(b1-3)Gal
Method in brief: as §1

[30] = molecular target: GlcNAc(b1-3)Gal(b1-3)GalNAc
Method in brief: as §1

[31] = molecular target: GlcNAc(b1-3)Gal(b1-4)Glc
Method in brief: as §1

[32] = molecular target: GlcNAc(b1-3)Gal(b1-4)GlcNAc
Method in brief: as §1

[33] = molecular target: GlcNAc(b1-3)Gal(b1-4)GlcNAc(b1-2)Man(a1-3)[GlcNAc(b1-3)Gal(b1-4)GlcNAc(b1-2)Man(a1-6)]Man(b1-4)GlcNAc(b1-4)GlcNAc
Method in brief: as §1

[34] = molecular target: GlcNAc(b1-3)Gal(b1-4)GlcNAc(b1-2)Man(a1-3)[GlcNAc(b1-3)Gal(b1-4)GlcNAc(b1-2)Man(a1-6)]Man(b1-4)GlcNAc(b1-4)[Fuc(a1-6)]GlcNAc
Method in brief: as §1

[35] = molecular target: GlcNAc(b1-3)Gal(b1-4)GlcNAc(b1-2)[GlcNAc(b1-3)Gal(b1-4)GlcNAc(b1-6)]Man(a1-6)[GlcNAc(b1-3)Gal(b1-4)GlcNAc(b1-2)Man(a1-3)]Man(b1-4)GlcNAc(b1-4)GlcNAc
Method in brief: as §1

[36] = molecular target: GlcNAc(b1-3)Gal(b1-4)GlcNAc(b1-3)Gal(b1-4)GlcNAc
Method in brief: as §1

[37] = molecular target: GlcNAc(b1-3)Gal(b1-4)GlcNAc(b1-3)Gal(b1-4)GlcNAc(b1-2)Man(a1-3)[GlcNAc(b1-3)Gal(b1-4)GlcNAc(b1-3)Gal(b1-4)GlcNAc(b1-2)Man(a1-6)]Man(b1-4)GlcNAc(b1-4)GlcNAc
Method in brief: as §1

[38] = molecular target: GlcNAc(b1-3)Gal(b1-4)GlcNAc(b1-3)Gal(b1-4)GlcNAc(b1-2)Man(a1-3)[GlcNAc(b1-3)Gal(b1-4)GlcNAc(b1-3)Gal(b1-4)GlcNAc(b1-2)Man(a1-6)]Man(b1-4)GlcNAc(b1-4)[Fuc(a1-6)]GlcNAc
Method in brief: as §1

[39] = molecular target: GlcNAc(b1-3)Gal(b1-4)GlcNAc(b1-3)Gal(b1-4)GlcNAc(b1-2)[GlcNAc(b1-3)Gal(b1-4)GlcNAc(b1-3)Gal(b1-4)GlcNAc(b1-6)]Man(a1-6)[GlcNAc(b1-3)Gal(b1-4)GlcNAc(b1-3)Gal(b1-4)GlcNAc(b1-2)Man(a1-3)]Man(b1-4)GlcNAc(b1-4)[Fuc(a1-6)]GlcNAc
Method in brief: as §1

[40] = molecular target: GlcNAc(b1-3)Gal(b1-4)GlcNAc(b1-3)Gal(b1-4)GlcNAc(b1-3)Gal(b1-4)GlcNAc(b1-2)Man(a1-3)[GlcNAc(b1-3)Gal(b1-4)GlcNAc(b1-3)Gal(b1-4)GlcNAc(b1-3)Gal(b1-4)GlcNAc(b1-2)Man(a1-6)]Man(b1-4)GlcNAc(b1-4)GlcNAc
Method in brief: as §1

[41] = molecular target: GlcNAc(b1-3)Gal(b1-4)GlcNAc(b1-3)Gal(b1-4)GlcNAc(b1-3)Gal(b1-4)GlcNAc(b1-2)Man(a1-3)[GlcNAc(b1-3)Gal(b1-4)GlcNAc(b1-3)Gal(b1-4)GlcNAc(b1-3)Gal(b1-4)GlcNAc(b1-2)Man(a1-6)]Man(b1-4)GlcNAc(b1-4)[Fuc(a1-6)]GlcNAc
Method in brief: as §1

[42] = molecular target: GlcNAc(b1-3)Gal(b1-4)GlcNAc(b1-3)Gal(b1-4)GlcNAc(b1-3)Gal(b1-4)GlcNAc(b1-2)[GlcNAc(b1-3)Gal(b1-4)GlcNAc(b1-3)Gal(b1-4)GlcNAc(b1-3)Gal(b1-4)GlcNAc(b1-6)]Man(a1-6)[GlcNAc(b1-3)Gal(b1-4)GlcNAc(b1-3)Gal(b1-4)GlcNAc(b1-3)Gal(b1-4)GlcNAc(b1-2)Man(a1-3)]Man(b1-4)GlcNAc(b1-4)[Fuc(a1-6)]GlcNAc
Method in brief: as §1

[43] = molecular target: GlcNAc(b1-3)Gal(b1-4)GlcNAc(b1-3)Gal(b1-4)GlcNAc(b1-3)Gal(b1-4)GlcNAc(b1-3)Gal(b1-4)GlcNAc(b1-2)Man(a1-3)[GlcNAc(b1-3)Gal(b1-4)GlcNAc(b1-3)Gal(b1-4)GlcNAc(b1-3)Gal(b1-4)GlcNAc(b1-3)Gal(b1-4)GlcNAc(b1-2)Man(a1-6)]Man(b1-4)GlcNAc(b1-4)GlcNAc
Method in brief: as §1

[44] = molecular target: GlcNAc(b1-3)Gal(b1-4)GlcNAc(b1-3)Gal(b1-4)GlcNAc(b1-3)Gal(b1-4)GlcNAc(b1-3)Gal(b1-4)GlcNAc(b1-2)Man(a1-3)[GlcNAc(b1-3)Gal(b1-4)GlcNAc(b1-3)Gal(b1-4)GlcNAc(b1-3)Gal(b1-4)GlcNAc(b1-3)Gal(b1-4)GlcNAc(b1-2)Man(a1-6)]Man(b1-4)GlcNAc(b1-4)[Fuc(a1-6)]GlcNAc
Method in brief: as §1

[45] = molecular target: GlcNAc(b1-3)Gal(b1-4)GlcNAc(b1-3)Gal(b1-4)GlcNAc(b1-3)Gal(b1-4)GlcNAc(b1-3)Gal(b1-4)GlcNAc(b1-2)[GlcNAc(b1-3)Gal(b1-4)GlcNAc(b1-3)Gal(b1-4)GlcNAc(b1-3)Gal(b1-4)GlcNAc(b1-3)Gal(b1-4)GlcNAc(b1-6)]Man(a1-6)[GlcNAc(b1-3)Gal(b1-4)GlcNAc(b1-3)Gal(b1-4)GlcNAc(b1-3)Gal(b1-4)GlcNAc(b1-3)Gal(b1-4)GlcNAc(b1-2)Man(a1-3)]Man(b1-4)GlcNAc(b1-4)[Fuc(a1-6)]GlcNAc
Method in brief: as §1

B1: Nc3LysM-2 (protein)
chain: AHVLQARQSVSCDFATAANTGDTCASFAAAWGITEAAFAKLNPGVSCPGNLIAGSEYCVIGTVSTGAPTTTKAATTSTTPPTTTTTTKATTLSTSTTSVSPTGPSPQMPSITSTCNKFYQVQSGDGCWSIEQAQGVSASDFMAWNKAVDAQCDNLWLGYYVCVGVKGGSSPPPTTTTKPASSSAPTPQMPNTVSNCKKFHKVVSGDGCWAIEQAAGISASDFAKWNPYVDAACDNLWLGYYVCIGV
glycan array binding signal (z-score) [1]: -1.2
glycan array binding signal (z-score) [2]: 0.063
glycan array binding signal (z-score) [3]: -0.827
glycan array binding signal (z-score) [4]: 2.36
glycan array binding signal (z-score) [5]: 0.714
glycan array binding signal (z-score) [6]: -0.097
glycan array binding signal (z-score) [7]: -0.659
glycan array binding signal (z-score) [8]: -0.118
glycan array binding signal (z-score) [9]: 1.48
glycan array binding signal (z-score) [10]: -0.277
glycan array binding signal (z-score) [11]: -1.01
glycan array binding signal (z-score) [12]: 0.216
glycan array binding signal (z-score) [13]: -0.569
glycan array binding signal (z-score) [14]: 1.78
glycan array binding signal (z-score) [15]: 1.22
glycan array binding signal (z-score) [16]: -0.514
glycan array binding signal (z-score) [17]: 0.834
glycan array binding signal (z-score) [18]: -0.159
glycan array binding signal (z-score) [19]: -0.01
glycan array binding signal (z-score) [20]: -0.543
glycan array binding signal (z-score) [21]: -0.01
glycan array binding signal (z-score) [22]: 0.665
glycan array binding signal (z-score) [23]: 1.71
glycan array binding signal (z-score) [24]: -0.569
glycan array binding signal (z-score) [25]: -1.22
glycan array binding signal (z-score) [26]: 1.11
glycan array binding signal (z-score) [27]: 0.849
glycan array binding signal (z-score) [28]: -0.531
glycan array binding signal (z-score) [29]: -0.043
glycan array binding signal (z-score) [30]: -0.395
glycan array binding signal (z-score) [31]: -1.54
glycan array binding signal (z-score) [32]: 1.5
glycan array binding signal (z-score) [33]: 0.484
glycan array binding signal (z-score) [34]: -1.78
glycan array binding signal (z-score) [35]: 0.064
glycan array binding signal (z-score) [36]: 0.247
glycan array binding signal (z-score) [37]: -0.123
glycan array binding signal (z-score) [38]: 3.4
glycan array binding signal (z-score) [39]: 0.806
glycan array binding signal (z-score) [40]: -0.959
glycan array binding signal (z-score) [41]: -0.33
glycan array binding signal (z-score) [42]: 0.309
glycan array binding signal (z-score) [43]: -0.307
glycan array binding signal (z-score) [44]: 1.71
glycan array binding signal (z-score) [45]: 0.213
